{"source": "paper PMC6638986", "key": {"[1]": {"biological_target": "Hsp90^E36A-GFP (C-terminally GFP-tagged E36A trap mutant of C. albicans Hsp90) (C. albicans) (UniProt P46598)", "test": "co-IP; GFP-Trap magnetic agarose beads on C. albicans lysates, 1 hour at 4°C, wash buffer 10 mM TrisHCl, 150 mM NaCl, 0.5 mM EDTA, pH 7.5; western immunoblot for Hsp90"}, "[2]": {"biological_target": "GFP-Hsp90 (N-terminally GFP-tagged C. albicans Hsp90) (C. albicans) (UniProt P46598)", "test": "co-IP; GFP-Trap magnetic agarose beads on C. albicans lysates, 1 hour at 4°C, wash buffer 10 mM TrisHCl, 150 mM NaCl, 0.5 mM EDTA, pH 7.5; western immunoblot for Hsp90"}}, "note": "No constants are given. Whether binding was seen depends on the method and setting. In cells and extracts the contact can be indirect. Some entries that bind do so weakly or less than the wild type.", "data": [{"substance": "Hsp90 (C. albicans), endogenous, untagged (from UniProt P46598 1-707)", "values": [{"measurement": "binding", "setting": "[1]", "value": "binds"}, {"measurement": "binding", "setting": "[2]", "value": "binds"}]}]}
